Experimental data published in PMC10470592.
Results are given in words; binding and its absence hold for the method and conditions named. In cells and extracts the contact can be indirect. Some binding calls cover weakened binding; strength is not graded here. Tags and fused reporters may be left off the sequences shown.

How the values were obtained:
[1] = biological target: T1, RIG-I (Retinoic-acid-inducible gene I) (UniProt O95786); test: co-IP; 293T cells co-transfected with HA-tagged SHIP1 constructs and Flag-tagged partners; IP using anti-Flag beads and immunoblot with anti-HA (Fig. 3C, 5A; also Fig. 3H, 3I, S3A, S5A); Flag-IRF3 with HA-SHIP1 also in NDP52 KO 293T cells, where the interaction was reduced (Fig. 5J)
T1 sequence: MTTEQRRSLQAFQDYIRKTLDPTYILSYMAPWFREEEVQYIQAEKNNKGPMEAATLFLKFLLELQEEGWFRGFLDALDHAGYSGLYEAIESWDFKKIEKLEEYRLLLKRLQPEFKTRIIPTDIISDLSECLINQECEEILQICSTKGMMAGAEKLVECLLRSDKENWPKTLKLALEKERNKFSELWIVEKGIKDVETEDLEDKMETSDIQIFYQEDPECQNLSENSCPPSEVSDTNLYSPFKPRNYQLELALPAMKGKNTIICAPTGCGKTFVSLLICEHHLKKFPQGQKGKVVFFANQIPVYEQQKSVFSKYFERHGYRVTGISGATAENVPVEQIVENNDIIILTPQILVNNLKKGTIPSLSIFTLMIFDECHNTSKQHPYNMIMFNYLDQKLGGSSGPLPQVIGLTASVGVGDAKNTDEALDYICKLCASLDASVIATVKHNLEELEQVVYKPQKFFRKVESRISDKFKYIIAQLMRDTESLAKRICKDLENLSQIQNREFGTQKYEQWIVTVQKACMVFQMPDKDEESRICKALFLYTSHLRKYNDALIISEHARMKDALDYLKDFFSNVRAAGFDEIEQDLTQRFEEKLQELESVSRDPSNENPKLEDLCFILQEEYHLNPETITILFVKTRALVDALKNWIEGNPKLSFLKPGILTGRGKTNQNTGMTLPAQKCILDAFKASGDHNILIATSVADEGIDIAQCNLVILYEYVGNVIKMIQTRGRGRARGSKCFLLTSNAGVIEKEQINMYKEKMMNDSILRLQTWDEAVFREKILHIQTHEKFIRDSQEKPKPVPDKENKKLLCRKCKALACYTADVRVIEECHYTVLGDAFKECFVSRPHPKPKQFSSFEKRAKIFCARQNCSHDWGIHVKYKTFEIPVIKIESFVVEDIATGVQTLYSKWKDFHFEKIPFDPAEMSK

[2] = biological target: T2, Flag-tagged NDP52 (CALCOCO2) (not stated (human or mouse cDNA cloned)) (UniProt Q13137); test: as above
T2 sequence: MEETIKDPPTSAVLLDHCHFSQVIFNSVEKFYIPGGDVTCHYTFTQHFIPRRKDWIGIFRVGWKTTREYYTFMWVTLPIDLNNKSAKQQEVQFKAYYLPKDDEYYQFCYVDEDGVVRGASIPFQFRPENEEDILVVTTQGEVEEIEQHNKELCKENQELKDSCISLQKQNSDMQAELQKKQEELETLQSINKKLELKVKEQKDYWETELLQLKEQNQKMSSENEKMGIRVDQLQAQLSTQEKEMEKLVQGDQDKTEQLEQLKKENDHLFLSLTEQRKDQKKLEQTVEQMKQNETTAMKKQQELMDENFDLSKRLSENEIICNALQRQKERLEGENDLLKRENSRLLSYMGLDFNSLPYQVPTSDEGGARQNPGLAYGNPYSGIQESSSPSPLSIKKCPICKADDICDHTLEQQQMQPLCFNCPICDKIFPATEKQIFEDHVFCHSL

B1: HA-tagged SHIP1 (Src homology 2 containing inositol phosphatase 1), full length (protein, UniProt Q92835 1-1189)
chain: MVPCWNHGNITRSKAEELLSRTGKDGSFLVRASESISRAYALCVLYRNCVYTYRILPNEDDKFTVQASEGVSMRFFTKLDQLIEFYKKENMGLVTHLQYPVPLEEEDTGDDPEEDTVESVVSPPELPPRNIPLTASSCEAKEVPFSNENPRATETSRPSLSETLFQRLQSMDTSGLPEEHLKAIQDYLSTQLAQDSEFVKTGSSSLPHLKKLTTLLCKELYGEVIRTLPSLESLQRLFDQQLSPGLRPRPQVPGEANPINMVSKLSQLTSLLSSIEDKVKALLHEGPESPHRPSLIPPVTFEVKAESLGIPQKMQLKVDVESGKLIIKKSKDGSEDKFYSHKKILQLIKSQKFLNKLVILVETEKEKILRKEYVFADSKKREGFCQLLQQMKNKHSEQPEPDMITIFIGTWNMGNAPPPKKITSWFLSKGQGKTRDDSADYIPHDIYVIGTQEDPLSEKEWLEILKHSLQEITSVTFKTVAIHTLWNIRIVVLAKPEHENRISHICTDNVKTGIANTLGNKGAVGVSFMFNGTSLGFVNSHLTSGSEKKLRRNQNYMNILRFLALGDKKLSPFNITHRFTHLFWFGDLNYRVDLPTWEAETIIQKIKQQQYADLLSHDQLLTERREQKVFLHFEEEEITFAPTYRFERLTRDKYAYTKQKATGMKYNLPSWCDRVLWKSYPLVHVVCQSYGSTSDIMTSDHSPVFATFEAGVTSQFVSKNGPGTVDSQGQIEFLRCYATLKTKSQTKFYLEFHSSCLESFVKSQEGENEEGSEGELVVKFGETLPKLKPIISDPEYLLDQHILISIKSSDSDESYGEGCIALRLEATETQLPIYTPLTHHGELTGHFQGEIKLQTSQGKTREKLYDFVKTERDESSGPKTLKSLTSHDPMKQWEVTSRAPPCSGSSITEIINPNYMGVGPFGPPMPLHVKQTLSPDQQPTAWSYDQPPKDSPLGPCRGESPPTPPGQPPISPKKFLPSTANRGLPPRTQESRPSDLGKNAGDTLPQEDLPLTKPEMFENPLYGSLSSFPKPAPRKDQESPKMPRKEPPPCPEPGILSPSIVLTKAQEADRGEGPGKQVPAPRLRSFTCSSSAEGRAAGGDKSQGKPKTPVSSQAPVPAKRPIKPSRSEINQQTPPTPTPRPPLPVKSPAVLHLQHSKGRDYRDNTELPHHGKHRPEEGPPGPLGRTAMQ
For B1, the binding [1] was “no binding” and the binding [2] was “binds”.
